Data as given in patent USRE47123.
These are yes or no findings as the source states them, for the method shown. Some results given as binding are weak or reduced against the parent protein; the word gives no strength.

Sequences of proteins named here, by UniProt entry; tags and fusion partners are left off. Residues count along the entry.
UniProt D3ZBN3, residues 23-977: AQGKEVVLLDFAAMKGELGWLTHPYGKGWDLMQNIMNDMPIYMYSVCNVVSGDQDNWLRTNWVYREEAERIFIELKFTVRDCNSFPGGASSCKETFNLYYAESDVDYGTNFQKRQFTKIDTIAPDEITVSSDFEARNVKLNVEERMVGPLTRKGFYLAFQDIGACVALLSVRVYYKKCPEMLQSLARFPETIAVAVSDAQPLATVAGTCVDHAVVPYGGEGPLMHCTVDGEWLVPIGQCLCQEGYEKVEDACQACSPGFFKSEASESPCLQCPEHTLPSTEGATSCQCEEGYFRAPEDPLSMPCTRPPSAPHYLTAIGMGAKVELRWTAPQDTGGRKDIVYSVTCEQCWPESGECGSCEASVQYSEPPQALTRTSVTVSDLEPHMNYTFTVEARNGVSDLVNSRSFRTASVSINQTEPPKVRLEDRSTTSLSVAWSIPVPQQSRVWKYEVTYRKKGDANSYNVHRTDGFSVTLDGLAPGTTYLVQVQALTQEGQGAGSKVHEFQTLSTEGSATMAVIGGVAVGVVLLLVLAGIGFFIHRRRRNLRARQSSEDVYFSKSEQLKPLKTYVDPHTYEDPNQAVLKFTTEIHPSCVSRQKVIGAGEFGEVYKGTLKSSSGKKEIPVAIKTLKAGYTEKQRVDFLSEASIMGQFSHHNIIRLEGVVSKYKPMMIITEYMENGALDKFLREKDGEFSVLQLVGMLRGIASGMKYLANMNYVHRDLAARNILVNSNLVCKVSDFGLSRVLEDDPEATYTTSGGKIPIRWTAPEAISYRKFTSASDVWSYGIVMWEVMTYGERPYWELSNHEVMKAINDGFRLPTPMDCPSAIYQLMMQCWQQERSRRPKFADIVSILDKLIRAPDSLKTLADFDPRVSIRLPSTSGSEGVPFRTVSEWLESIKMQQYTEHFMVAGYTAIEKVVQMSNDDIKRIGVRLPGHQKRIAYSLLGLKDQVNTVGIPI

How the values were obtained:
rat EphA2 receptor (rat) [1] = target: rat EphA2 receptor (rat) (UniProt D3ZBN3); experiment: FACS, 300-19/rat-EphA2 cells (FIG. 4B legend)
rat EphA2 receptor (rat) [2] = target: rat EphA2 receptor (rat) (UniProt D3ZBN3); experiment: FACS, cells over-expressing rat EphA2

binding (rat EphA2 receptor (rat) [1]): binds | binding (rat EphA2 receptor (rat) [2]): binds
B1: murine anti-EphA2 monoclonal antibody 37.3D7 (antibody, V domains shown)
VH: QVQLQQPGSELVRPGASVQLSCKASGYSFTSYWMHWVRQRPGQGLQWIGNIYPGTGNTNYDEKFMNKATLTVDTYSSTTYMQLSSLTSEDSAVYYCARWGLVRYFFAMDYWGQGTSVTVSS
VL: QIVLTQSPAIMSASLGERVTMTCTVSSSVNSSYLHWYQQKPGSSPKLWIYSTSNLPSGVPARFSGSGSGTSYSLTISTIESEDAATYYCHQYHRSPQFTFGSGTKLEIKR
